# Literature values, collected in US5688992A, “O-malonyltryrosyl compounds, O-malonyltryrosyl compound-containing peptides, and use thereof” (The United States of America as represented by the …, priority 1995, dated 1997).
# Amino acid sequences for entries named in this document (tags omitted). Residues count along the entry.
# UniProt P12931, 151-248 limits assumed: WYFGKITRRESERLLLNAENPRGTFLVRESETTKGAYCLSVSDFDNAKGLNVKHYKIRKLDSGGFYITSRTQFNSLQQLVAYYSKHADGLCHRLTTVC
# UniProt P27986, 624-718 limits assumed: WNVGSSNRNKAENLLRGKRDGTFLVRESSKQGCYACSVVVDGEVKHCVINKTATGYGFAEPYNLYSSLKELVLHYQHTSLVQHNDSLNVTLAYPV
# UniProt P62993, 60-152 limits assumed: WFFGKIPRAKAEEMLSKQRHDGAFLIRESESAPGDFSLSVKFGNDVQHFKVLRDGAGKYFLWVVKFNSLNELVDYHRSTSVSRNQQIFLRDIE
# What was measured:
# [1] = molecular target: Src SH2 domain (Homo sapiens, UniProt P12931); conditions: read-out: IC50 ± S.E., Src SH2 domain; X = pTyr or L-F2Pmp; previously reported (Burke 1994); cited from earlier work
# [2] = molecular target: C-terminal SH2 domain of PI 3-kinase p85 (Homo sapiens, UniProt P27986); conditions: read-out: IC50 ± S.E., p85 (C-terminal) SH2 domain; X = pTyr or L-F2Pmp; previously reported (Burke 1994); cited from earlier work
# [3] = molecular target: Grb2 SH2 domain (Homo sapiens, UniProt P62993); conditions: read-out: IC50 ± S.E., Grb2 SH2 domain; X = pTyr or L-F2Pmp; previously reported (Burke 1994); cited from earlier work
smiles,measurement,setting,value
CC[C@H](C)[C@H](NC(=O)[C@H](CCC(=O)O)NC(=O)[C@H](CCC(=O)O)NC(=O)[C@H](Cc1ccc(C(F)(F)P(=O)(O)O)cc1)NC(=O)[C@H](CCC(N)=O)NC(C)=O)C(=O)N1CCC[C@H]1C(N)=O,IC50,[1],1 µM
CSCC[C@H](NC(=O)[C@@H]1CCCN1C(=O)[C@@H](NC(=O)[C@H](Cc1ccc(C(F)(F)P(=O)(O)O)cc1)NC(=O)[C@H](CC(=O)O)NC(C)=O)C(C)C)C(=O)N[C@@H](CC(C)C)C(N)=O,IC50,[2],0.17 µM
CC[C@H](C)[C@H](NC(=O)[C@H](CC(N)=O)NC(=O)[C@@H](NC(=O)[C@H](Cc1ccc(OP(=O)(O)O)cc1)NC(=O)[C@H](CC(N)=O)NC(C)=O)C(C)C)C(=O)N[C@@H](CCC(=O)O)C(N)=O,IC50,[3],0.9 µM

# The match of structure and compound is tentative.
